We go through 54 sequences from article PMC7819943, “Rice protein-binding microarrays: a tool to detect cis-acting elements near promoter regions in rice”.

By UniProt entry, the sequences of proteins in these tests, tags left out.
UniProt Q0JBA9, entry or part of it: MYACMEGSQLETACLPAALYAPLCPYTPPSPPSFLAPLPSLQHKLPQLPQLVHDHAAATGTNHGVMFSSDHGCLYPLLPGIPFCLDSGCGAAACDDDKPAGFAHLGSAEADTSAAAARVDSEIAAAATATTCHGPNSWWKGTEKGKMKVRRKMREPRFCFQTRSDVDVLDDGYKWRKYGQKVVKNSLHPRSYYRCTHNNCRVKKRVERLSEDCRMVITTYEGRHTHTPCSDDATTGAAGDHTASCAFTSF

Some of the results follow.

The assay deals with OsWRKY34 (Oryza sativa, UniProt Q0JBA9 1-250). Description: protein-binding microarray (RPBM); PBS, 2% BSA, 51.3 ng/ul salmon testes DNA, 50 uM zinc acetate, 200 nM TF, 25 C, 1 h; high values mean tight binding. The following applies: protein: recombinant; tags: N-terminal polyhistidine and DsRed monomer fusion (pET32a); label: CyDye5-dUTP incorporated in the synthesized complementary strand; 3' TTTTT single-stranded linker to array surface; dsDNA, one strand shown. In a few lines:
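Transcription factors were each fused at the N-terminus to a polyhistidine tag plus DsRed and expressed in E. coli BL21-CodonPlus before Ni–NTA purification. Binding to a double-stranded custom Agilent array was carried out with 200 nM protein at 25 °C for 1 h in PBS, 2% BSA, salmon testes DNA and 50 µM zinc acetate. The binding signal is per-feature fluorescence intensity, in arbitrary units, on an Axon 4000B scanner.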
Regarding “GGCGCCTCGACCAACCAACCTGTCTATCTGCTTCCTCGACCGGAGTCACCTAGTGCAG”, the binding signal was 11700 fluorescence intensity (a.u.).
In the case of “GTGGTAGATACTTACTTACTCCTAAGTCACGAAATAGTTTCGGAGTCACCTAGTGCAG”, the binding signal was 8610 fluorescence intensity (a.u.).
The same measure for “GGGTGAGTAATATCTGGTTTTTGGGTTTAGGGCGGTAATTCGGAGTCACCTAGTGCAG”: 17700 fluorescence intensity (a.u.); for “GGTATCTCTTTGTTCAGCTCTCTATTCACAACTTGAGGGGCGGAGTCACCTAGTGCAG”: 11300 fluorescence intensity (a.u.); for “TGCTAGAGAAAGTCTCTTATTTTTCATACACACGTTTTCCCGGAGTCACCTAGTGCAG”: 10100 fluorescence intensity (a.u.).
Turning to “GTCCCCGCGGCTCATCTCCCTCCTCAGGCAAAGCGCAGCACGGAGTCACCTAGTGCAG”, the binding signal is 8080 fluorescence intensity (a.u.).
The same measure for “CTCTCTCATCTCGCTGTAGTCCACACGCGGACATGCCGCCCGGAGTCACCTAGTGCAG”: 8470 fluorescence intensity (a.u.); for “TAAAAATCAGCTAGTGTGGGATGGGATCTCGAATTTTCTGCGGAGTCACCTAGTGCAG”: 8760 fluorescence intensity (a.u.).
In the case of “TTTGCATTTATTTTTCATTGTTTCCGTCACTTTAGAAATTCGGAGTCACCTAGTGCAG”, the binding signal is 8260 fluorescence intensity (a.u.).
“TTTCCTGTTGTCATACTTAGTACTGCCCTTTATAAGTTGACGGAGTCACCTAGTGCAG”: the binding signal was 8680 fluorescence intensity (a.u.).
Consider “TATCCTCTTTGCTGCTAATGGTGTCATTATCCCGTGTGTACGGAGTCACCTAGTGCAG”, for which the binding signal is 10100 fluorescence intensity (a.u.).
“GAACCATTTACAGTTATATACCGTATCGTTTACTATTTGTCGGAGTCACCTAGTGCAG”: the binding signal is 8140 fluorescence intensity (a.u.).
For “ATCTTCGCTCTAGTCTCAGCTCAAAAGCTTTTGACCATTCCGGAGTCACCTAGTGCAG”, the binding signal is 10900 fluorescence intensity (a.u.).
For the sequence “GTCGGTTTCTTCGCTCCATTGTTCTGTTCCTTGCTCGAGACGGAGTCACCTAGTGCAG”, the binding signal was 9940 fluorescence intensity (a.u.).
For “CGTACGTCTACCATTTCTCTCTCCTTGCTGTAGGAATGACCGGAGTCACCTAGTGCAG”, the binding signal is 9260 fluorescence intensity (a.u.).
In the case of “TCATTCTCCGACATCTATCGTCGCCGTCACCAACATCCTACGGAGTCACCTAGTGCAG”, the binding signal is 8170 fluorescence intensity (a.u.).
In the case of “CTATCCTGGTTGTCTGCCCTATGAAACCACTCTCTACAGTCGGAGTCACCTAGTGCAG” it was 8830 fluorescence intensity (a.u.); in that of “GCTTAATAACATTCTATCTATACCTGTTCTTTTCTTTATGCGGAGTCACCTAGTGCAG”, 8420 fluorescence intensity (a.u.).
As for “ACAATGAACACCTGCACCTACCATGCACTAGTCACTTCATCGGAGTCACCTAGTGCAG”, the binding signal was 8880 fluorescence intensity (a.u.).
For “TTTTTGCCTAGTTGGCAAGCCTCTTCGTTCGACCGCTAGACGGAGTCACCTAGTGCAG”, the binding signal was 9820 fluorescence intensity (a.u.).
With “GAGGGGTCGAGGAGGCGTAGTAGTTCAGTTTGGCTCTTTCCGGAGTCACCTAGTGCAG”, the binding signal was 8890 fluorescence intensity (a.u.).
In the case of “TTCCTTTATTCCTTTTTTTTCTTCTCTCGCGCTCGATTCGCGGAGTCACCTAGTGCAG” it was 8800 fluorescence intensity (a.u.); in that of “GACTTTGCCATGCTTCACCTGGTTATCTCCAGATTCACATCGGAGTCACCTAGTGCAG”, 9130 fluorescence intensity (a.u.); in that of “GCTTGGCTACCAGGGCCACTCTTTTCGTTACCATTTGCATCGGAGTCACCTAGTGCAG”, 10700 fluorescence intensity (a.u.).
Regarding “CGCTGTCGACCTCCCCACCTCCTCCTTCGCACGTTCTCGCCGGAGTCACCTAGTGCAG”, the binding signal is 9840 fluorescence intensity (a.u.).
The same measure for “TGGACTTATTTTGGTCGGATTTGAGGTGTTTATGTAATCACGGAGTCACCTAGTGCAG”: 9160 fluorescence intensity (a.u.).
In the case of “AGGGGTTTTTCGGCTAGCTTCACAAGATTGTGGGTTAGCTCGGAGTCACCTAGTGCAG” it was 8650 fluorescence intensity (a.u.).
As to “TACCCCGGCGCGATCTTGACCACGTTCTTCCACCCCTTCTCGGAGTCACCTAGTGCAG”, the binding signal was 9200 fluorescence intensity (a.u.).
Turning to “GCAGCGCCGTTCCCCTCTCCTCGCCCCGCCATGCCGCTCACGGAGTCACCTAGTGCAG”, the binding signal was 9050 fluorescence intensity (a.u.).
With “ATTCAAGGTTGGATGGTTTTCTTTTTTTACTCTAAATTTCCGGAGTCACCTAGTGCAG”, the binding signal is 12000 fluorescence intensity (a.u.).
As for “CTGTCTCCGTCTCTTTTACCTCAGTCTCGCGTATATCCTACGGAGTCACCTAGTGCAG”, the binding signal was 9160 fluorescence intensity (a.u.).
Consider “TTTGTGCTAATATTTTTTCTACTGTTATTTTTTATACTTCCGGAGTCACCTAGTGCAG”, for which the binding signal was 10600 fluorescence intensity (a.u.).
The same measure for “TTGTGAGGTTAATCCGTGGCCATTTTGACAGCTTGAGTTTCGGAGTCACCTAGTGCAG”: 9210 fluorescence intensity (a.u.); for “TTACACACAGTATTCAGTCGCGTTAGTCTCCTTCGAATATCGGAGTCACCTAGTGCAG”: 10800 fluorescence intensity (a.u.); for “CCCGGCCGCTCTCTCCGGGTGGGGTGGTGGGTGGCAAGGGCGGAGTCACCTAGTGCAG”: 21100 fluorescence intensity (a.u.).
In the case of “TTCAGAGTATTGTGATCCTTAAATCGAACCGTTGACTCTACGGAGTCACCTAGTGCAG” it was 9490 fluorescence intensity (a.u.); in that of “GTCGAGCGGGCGAACATGATCTCGCGGGAGGGTGGGGTTGCGGAGTCACCTAGTGCAG”, 13500 fluorescence intensity (a.u.).
Consider “AGCTAGCCCACTACACCTCCTACACCCTCACCATCCAATACGGAGTCACCTAGTGCAG”, for which the binding signal is 9000 fluorescence intensity (a.u.).
The same measure for “ATGGGCAAGACGGCTCCTCTGTTTCTCTCCTACCTCCTCTCGGAGTCACCTAGTGCAG”: 11000 fluorescence intensity (a.u.); for “GCCTGGTCGCTCCGCGCCTCTCTCCCCGCCCGCATCCTCGCGGAGTCACCTAGTGCAG”: 10800 fluorescence intensity (a.u.).
Regarding “ATCCAGGCAAGGGTGGGCGTGATGGAGTTTGGATGGGCCCCGGAGTCACCTAGTGCAG”, the binding signal is 8850 fluorescence intensity (a.u.).
Turning to “TCCATCGATTTGTTTTCTCTCTCCTGTCAGTTTTTTGCTACGGAGTCACCTAGTGCAG”, the binding signal is 10900 fluorescence intensity (a.u.).
Consider “CTGGTGGTGTAGTATATTAGCGTCCTTGCCCTGGCCTTTGCGGAGTCACCTAGTGCAG”, for which the binding signal is 9110 fluorescence intensity (a.u.).
As for “CATCAAACAGCTTTCTCTGCTAACACCCTTAGATCTATTCCGGAGTCACCTAGTGCAG”, the binding signal was 11200 fluorescence intensity (a.u.).
Take “CTCCCCGGCCTCTCCACCCACCCCTCGATCTCTCGCTCGCCGGAGTCACCTAGTGCAG”: the binding signal was 8600 fluorescence intensity (a.u.).
Turning to “TCTCTCTCTCGTCGTCTCGCGTCTCTTCTCTCAACCGCGACGGAGTCACCTAGTGCAG”, the binding signal is 13800 fluorescence intensity (a.u.).
The same measure for “TCAACACTGGCCTCTTTTTCACCTCGCAGCCTCGCACCGCCGGAGTCACCTAGTGCAG”: 11800 fluorescence intensity (a.u.); for “ACCCATTACAACCCTGTAGTACATGCCACACCGTTTGACACGGAGTCACCTAGTGCAG”: 10800 fluorescence intensity (a.u.); for “AGGGGTGTAACAAGGTGCTATTCTCTGCATTGCTAGAATACGGAGTCACCTAGTGCAG”: 8510 fluorescence intensity (a.u.).
As for “ACTTTCACAAGGGTGTGTTTTTTGCGTTAAAATTGAAAGTCGGAGTCACCTAGTGCAG”, the binding signal is 8870 fluorescence intensity (a.u.).
Consider “TGGTGACATAAACTTGGAGTACACTCTTTGGCCATTAATTCGGAGTCACCTAGTGCAG”, for which the binding signal was 9610 fluorescence intensity (a.u.).
Regarding “GGGAGAGAAGAATCTGTAGTTGGGAGGAAATTGAGTTTTGCGGAGTCACCTAGTGCAG”, the binding signal is 10600 fluorescence intensity (a.u.).
With “AATTTTACCCGTGGGCTTGTCCGCCCAAGACCCGTAGACACGGAGTCACCTAGTGCAG”, the binding signal was 9780 fluorescence intensity (a.u.).
Consider “CGCTTCCTCGCCGCGCGCGCGCCCGCCATCTCCTCGCCTCCGGAGTCACCTAGTGCAG”, for which the binding signal is 9350 fluorescence intensity (a.u.).
